Laboratory results as given in PubChem BioAssay AID743255 (National Center for Advancing Translational Sciences (NCATS), 2014).
Where “and” joins values, the source holds several entries; their conditions need not be identical. Equal entries are not always repeated. Screen size: about 390,000 compounds; about 910 (0.23%) were called active. Inconclusive means that the source gave no clear call. Such entries were picked first, then a sample of the others. Calls come from the whole dose curve; as a rule, active = well fitted inhibition curve with a large enough effect; inconclusive = small, poorly fitted or top-dose-only effect; inactive = no such curve, though single readings can be large or run the other way. A potency beside an inconclusive call is a rough fit, not a confirmed value.

The chains behind the UniProt entries cited, without tags or fusion partners. Where a name states a change or a piece, a line headed by the entry shows the natural chain unless it says otherwise.
UniProt O94782: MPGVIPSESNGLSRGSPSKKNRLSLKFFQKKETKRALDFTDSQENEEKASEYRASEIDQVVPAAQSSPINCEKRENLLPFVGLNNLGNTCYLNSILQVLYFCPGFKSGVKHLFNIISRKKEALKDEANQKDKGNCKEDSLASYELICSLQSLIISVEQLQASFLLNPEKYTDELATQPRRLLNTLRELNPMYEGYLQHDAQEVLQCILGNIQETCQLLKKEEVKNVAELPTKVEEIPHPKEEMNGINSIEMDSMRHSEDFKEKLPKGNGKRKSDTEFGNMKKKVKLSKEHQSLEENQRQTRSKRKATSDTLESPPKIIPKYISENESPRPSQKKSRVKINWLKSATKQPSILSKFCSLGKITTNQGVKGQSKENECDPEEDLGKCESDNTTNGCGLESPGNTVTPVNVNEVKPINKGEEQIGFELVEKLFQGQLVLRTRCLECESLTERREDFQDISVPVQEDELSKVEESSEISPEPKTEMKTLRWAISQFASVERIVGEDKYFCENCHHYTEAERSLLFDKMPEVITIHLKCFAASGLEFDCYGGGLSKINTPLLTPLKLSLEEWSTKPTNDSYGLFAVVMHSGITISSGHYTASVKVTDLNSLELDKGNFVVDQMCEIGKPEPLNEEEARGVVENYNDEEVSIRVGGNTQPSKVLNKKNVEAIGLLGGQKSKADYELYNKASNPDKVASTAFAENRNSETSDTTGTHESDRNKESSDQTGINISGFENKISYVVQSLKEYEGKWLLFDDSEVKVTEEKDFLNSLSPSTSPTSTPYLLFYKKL

Target: Ubiquitin carboxyl-terminal hydrolase 1 (Homo sapiens) (UniProt O94782)
Test: Inhibitors of USP1/UAF1: Primary Screen; note: nearly all actives have a fitted effect of over 60% in size
Settings: recombinant USP1/UAF1, Ub-Rhodamine cleavage fluorescence; activity change, negative = inhibition: at 57.1 µM (top of the series)
In short: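 USP1/UAF1 complex at 1 nM was preincubated with compound for 15 min at room temperature, then Ub-Rho substrate (150nM final) was added. Fluorescence (480/540 nm) was read kinetically, 6 reads every 60 seconds.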
% is set by controls: 0 for no effect and ±100 for the full control effect; potency is the fitted concentration of half-maximal effect.

Structure (SMILES) | Potency | activity change, negative = inhibition
O=c1c2cn[nH]c2nc(SCc2cccc(Br)c2)n1-c1ccc(Cl)cc1 | inconclusive: 112 µM [inhibitor, partial curve, poor fit] | 
Cc1nc(Nc2ccc(Cl)cc2)cc(-c2ccccc2)n1 | inconclusive: 31.6 µM [inhibitor, partial curve, poor fit] | 
O=C(N/C(=C\c1cccc(Br)c1)C(=O)N1CCOCC1)c1ccco1 | inconclusive: 1.12 µM [inhibitor, full curve, poor fit] | 
Cc1ccc(CN(C(=O)COc2ccc(Cl)c(C)c2)C2CCS(=O)(=O)C2)o1 (configuration not stated) |  | inactive: -24.1%
Cc1nc2nc(SCC(=O)O)nn2c(C)c1Cc1c(F)cccc1Cl | inconclusive: 0.251 µM [inhibitor, full curve, poor fit] | 
C=CCN1CC(C)/C(=N\O)CC1C (configuration not stated) | inconclusive: 6.31 µM [inhibitor, single point] | 
CSCCC1NC(=O)N(CC(=O)Nc2c(Cl)cc(Cl)cc2Cl)C1=O (configuration not stated) |  | inactive: -4.2%
CCc1ccc(NC(=O)C(C)n2nnc3sc(-c4ccccc4)cc3c2=O)cc1 (configuration not stated) |  | inactive: -9.42%
COc1ccc(CN(C)CC(=O)Nc2cc(OC)c([N+](=O)[O-])cc2C)c(OC)c1 |  | inactive: -8.15%
COc1cccc(OC)c1C(=O)Nc1ccc2c(c1)Cc1ccccc1-2 | inconclusive: 7.94 µM [inhibitor, full curve, poor fit] | 
Cc1ccc(C(=O)NCC(=O)OCC(=O)c2cc(C)n(Cc3ccco3)c2C)cc1 | inconclusive: 50.1 µM [inhibitor, single point] | 
O=C(NCCc1ccccc1Cl)c1sc2ncccc2c1-n1cccc1 | inconclusive: 5.62 µM [inhibitor, single point] | 
CCOc1ccccc1-c1nc(CN(Cc2cnn(C)c2)C(C)C)c(C)o1 | inconclusive: 0.251 µM [inhibitor, full curve, poor fit] | 
CC(C)c1cc(C(=O)NCc2ccco2)no1 | inconclusive: 44.7 µM [inhibitor, partial curve, poor fit] | 
O=C(Nc1ccc(F)c(Cl)c1)N1CC=C(c2c[nH]c3ccccc23)CC1 | inconclusive: 35.5 µM [inhibitor, partial curve, poor fit] | 
Cc1ccc(NC(=O)O/N=C/c2ccc(N(C)C)cc2)cc1 | inconclusive: 0.794 µM [inhibitor, full curve, poor fit] | 
COc1ccc(NC(=O)CSc2nc(SC)ns2)cc1 | inconclusive: 3.55 µM [inhibitor, partial curve] | 
CCCCCCCCN1[C@@H](CC(=O)OCC)c2cc(C(F)(F)F)ccc2S1(=O)=O | inconclusive: 70.8 µM [inhibitor, partial curve, poor fit] | 
Cc1cccn2c(=O)c3cc(S(=O)(=O)c4ccc(Br)cc4)c(=N)n(C4CCCC4)c3nc12 | inconclusive: 28.2 µM [inhibitor, single point] | 
O=[N+]([O-])c1ccc(N2CCOCC2)cc1N1CCCCC1 | inconclusive: 39.8 µM [inhibitor, partial curve] | 
Cc1ccc(NS(=O)(=O)c2coc(C(N)=O)c2)cc1F |  | inactive: -16.3%

An excerpt of these results, with each value named.
Cc1nc(Nc2ccc(Cl)cc2)cc(-c2ccccc2)n1
  Potency: inconclusive: 31.6 µM [inhibitor, partial curve, poor fit]
COc1ccc(CN(C)CC(=O)Nc2cc(OC)c([N+](=O)[O-])cc2C)c(OC)c1
  activity change, negative = inhibition: inactive: -8.15%

(continued)

Structure (SMILES) | Potency | activity change, negative = inhibition
COc1cc(OC)c(NC(=O)CCCn2nc(C)c3c(C)n(-c4ccccc4)nc3c2=O)cc1Cl | inconclusive: 35.5 µM [inhibitor, partial curve] | 
CC(NC(=O)Cn1ccsc1=N)C12CC3CC(CC(C3)C1)C2 (configuration not stated) |  | inactive: -16.5%
Cc1[nH][nH]c(=O)c1C(c1ccc(-c2ccc(C(=O)O)cc2)o1)c1c(C)[nH][nH]c1=O | inconclusive: 14.1 µM [inhibitor, partial curve] | 
Cc1nnc2c3ccccc3c(-c3ccccc3)nn12 | inconclusive: 22.4 µM [inhibitor, partial curve] | 
COCCCNc1nc(NCc2cccc(Cl)c2)c2cnn(C)c2n1 |  | inactive: -12.9%
Cc1ccc(C(c2cccc(Br)c2)c2c(C)[nH]c3ccccc23)s1 (configuration not stated) |  | inactive: -23%
Cc1ccccc1CSc1nnc(-c2ccncc2)n1C | inconclusive: 0.631 µM [inhibitor, full curve, poor fit] | 
COc1cccc(CC(=O)OCC(=O)NCc2ccc3c(c2)OCO3)c1 | inconclusive: 35.5 µM [inhibitor, single point] | 
COc1cccc(/C=N/Nc2nc(N3CCCC3)nc(N3CCCC3)n2)c1O | inconclusive: 15.8 µM [inhibitor, partial curve] | 
COc1ccc(OCC(=O)NCC(c2ccc(OC)cc2)N2CCCCC2)cc1 (configuration not stated) | inconclusive: 10 µM [inhibitor, partial curve, poor fit] | 
O=C(NCCN1CCN(Cc2ccc([N+](=O)[O-])cc2)CC1)C(=O)Nc1ccccc1 | inconclusive: 28.2 µM [inhibitor, single point] | 
CCCOc1ccc(CCC(=O)N/N=C/c2ccco2)cc1 | inconclusive: 7.08 µM [inhibitor, partial curve, poor fit] | 
CC(C)(O)[C@H]1Cc2cc3ccc(=O)oc3cc2O1 | inconclusive: 11.2 µM [inhibitor, partial curve, poor fit] | 
Cc1ccc2sc(C)[n+](CCO)c2c1 |  | inactive: -16.4%
CCN1C(=O)/C(=C/c2nc3ccccc3c(=O)[nH]2)c2ccccc21 |  | inactive: -5.64%
Cn1ncc([N+](=O)[O-])c1C(=O)N/N=C/c1cccc([N+](=O)[O-])c1 |  | inactive: 1.42%
Nc1c(C(=O)Nc2ccc(OC(F)(F)F)cc2)sc2nc(-c3ccncc3)ccc12 | inconclusive: 0.562 µM [inhibitor, full curve, poor fit] | 
COc1cccc(CN2CCN(C(=O)CCc3nnc(C4CCCCC4)o3)CC2=O)c1 | inconclusive: 44.7 µM [inhibitor, partial curve, poor fit] | 
COc1ccc(CNC(=O)C2CCCN(S(=O)(=O)c3cccc4nsnc34)C2)cc1 (configuration not stated) | inconclusive: 5.62 µM [inhibitor, partial curve] and inconclusive: 5.62 µM [inhibitor, full curve] | 
Cc1ccc(CNc2ccc3c(c2)OCO3)cc1 | active: 28.2 µM | 
N#CC/C(N)=N/NC(=O)CCCNc1ncc(C(F)(F)F)cc1Cl | inconclusive: 7.08 µM [inhibitor, partial curve, poor fit] | 
